# Source: the supplement of paper PMC8728848
# The other results are listed elsewhere or left out.
# Assays:
# Test in all cases: glycan array binding signal (z-score within array); higher = stronger binding
# Conditions in all cases: glycan notation: IUPAC condensed, linker removed
# [1] = molecular target: Gal6S(b1-4)Glc
# Summary of the method: (§1)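 Glycan array data came from 3228 arrays in the Consortium for Functional Glycomics database, and only arrays with an available protein sequence were kept. Glycan names were put into IUPAC-condensed notation, and columns mapping to the same glycan were averaged. The binding signal is a within-array Z-score, averaged across arrays of one protein sequence run at different concentrations or buffers and across linkers. A negative Z-score can be read as non-binding.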
# [2] = molecular target: Gal6S(b1-4)Glc6S
# Summary of the method: as §1
# [3] = molecular target: Gal6S(b1-4)GlcNAc
# Summary of the method: as §1
# [4] = molecular target: Gal6S(b1-4)GlcNAc6S
# Summary of the method: as §1
# [5] = molecular target: GalNAc(a1-3)Gal
# Summary of the method: as §1
# [6] = molecular target: GalNAc(a1-3)GalNAc
# Summary of the method: as §1
# [7] = molecular target: GalNAc(a1-3)GalNAc(a1-3)Gal(a1-4)Gal(b1-4)GlcNAc
# Summary of the method: as §1
# [8] = molecular target: GalNAc(b1-3)Gal
# Summary of the method: as §1
# [9] = molecular target: GalNAc(b1-3)Gal(a1-4)Gal(b1-4)GlcNAc
# Summary of the method: as §1
# [10] = molecular target: GalNAc(b1-3)Gal(a1-4)Gal(b1-4)GlcNAc(b1-3)Gal(b1-4)Glc
# Summary of the method: as §1
# [11] = molecular target: GalNAc(b1-3)Gal(a1-6)Gal(b1-4)Glc
# Summary of the method: as §1
# [12] = molecular target: GalNAc(b1-3)GalNAc
# Summary of the method: as §1
# [13] = molecular target: GalNAc(b1-4)GlcNAc
# Summary of the method: as §1
# [14] = molecular target: GalNAc(b1-4)GlcNAc(b1-2)Man(a1-3)[GalNAc(b1-4)GlcNAc(b1-2)Man(a1-6)]Man(b1-4)GlcNAc(b1-4)GlcNAc
# Summary of the method: as §1
# [15] = molecular target: Glc(a1-4)Glc
# Summary of the method: as §1
# [16] = molecular target: Glc(a1-6)Glc(a1-6)Glc
# Summary of the method: as §1
# [17] = molecular target: Glc(b1-4)Glc
# Summary of the method: as §1
# [18] = molecular target: Glc(b1-6)Glc
# Summary of the method: as §1
# [19] = molecular target: GlcA(b1-3)Gal
# Summary of the method: as §1
# [20] = molecular target: GlcA(b1-3)GlcNAc
# Summary of the method: as §1
# [21] = molecular target: GlcA(b1-6)Gal
# Summary of the method: as §1
# [22] = molecular target: GlcNAc(a1-3)Gal(b1-4)GlcNAc
# Summary of the method: as §1
# [23] = molecular target: GlcNAc(a1-4)Gal(b1-3)GlcNAc
# Summary of the method: as §1
# [24] = molecular target: GlcNAc(a1-4)Gal(b1-4)GalNAc
# Summary of the method: as §1
# [25] = molecular target: GlcNAc(a1-4)Gal(b1-4)GlcNAc
# Summary of the method: as §1
# [26] = molecular target: GlcNAc(a1-4)Gal(b1-4)GlcNAc(b1-3)Gal(b1-4)Glc
# Summary of the method: as §1
# [27] = molecular target: GlcNAc(a1-4)Gal(b1-4)GlcNAc(b1-3)Gal(b1-4)GlcNAc
# Summary of the method: as §1
# [28] = molecular target: GlcNAc(a1-4)Gal(b1-4)GlcNAc(b1-3)Gal(b1-4)GlcNAc(b1-3)Gal(b1-4)GlcNAc
# Summary of the method: as §1
# [29] = molecular target: GlcNAc(a1-4)Gal(b1-4)GlcNAc(b1-3)Gal(b1-4)[Fuc(a1-3)]GlcNAc(b1-3)Gal(b1-4)[Fuc(a1-3)]GlcNAc
# Summary of the method: as §1
# [30] = molecular target: GlcNAc(a1-6)Gal(b1-4)GlcNAc
# Summary of the method: as §1
# [31] = molecular target: GlcNAc(b1-2)Gal(b1-3)GalNAc
# Summary of the method: as §1
# [32] = molecular target: GlcNAc(b1-2)Man(a1-3)[GlcNAc(b1-2)Man(a1-6)]Man(b1-4)GlcNAc(b1-4)GlcNAc
# Summary of the method: as §1
# [33] = molecular target: GlcNAc(b1-2)Man(a1-3)[GlcNAc(b1-2)Man(a1-6)]Man(b1-4)GlcNAc(b1-4)[Fuc(a1-6)]GlcNAc
# Summary of the method: as §1
# [34] = molecular target: GlcNAc(b1-2)[GlcNAc(b1-4)]Man(a1-3)[GlcNAc(b1-2)Man(a1-6)]Man(b1-4)GlcNAc(b1-4)GlcNAc
# Summary of the method: as §1
# [35] = molecular target: GlcNAc(b1-3)Gal
# Summary of the method: as §1
# [36] = molecular target: GlcNAc(b1-3)Gal(b1-3)GalNAc
# Summary of the method: as §1
# [37] = molecular target: GlcNAc(b1-3)Gal(b1-4)Glc
# Summary of the method: as §1
# [38] = molecular target: GlcNAc(b1-3)Gal(b1-4)GlcNAc
# Summary of the method: as §1
binder,measurement,setting,value
"SAG1 (Toxoplasma gondii), P13664 (protein) MSVSLHHFIISSGFLTSMFPKAVRRAVTAGVFAAPTLMSFLRCGVMASDPPLVANQVVTCPDKKSTAAVILTPTENHFTLKCPKTALTEPPTLAYSPNRQICPAGTTSSCTSKAVTLSSLIPEAEDSWWTGDSASLDTAGIKLTVPIEKFPVTTQTFVVGCIKGDDAQSCMVTVTVQARASSVVNNVARCSYGADSTLGPVKLSAEGPTTMTLVCGKDGVKVPQDNNQYCSGTTLTGCNEKSFKDILPKLTENPWQGNASSDKGATLTIKKEAFPAESKSVIIGCTGGSPEKHHCTVKLEFAGAAGSAKSAAGTASHVSIFAMVIGLIGSIAACVA",glycan array binding signal (z-score),[1],-0.579
same,glycan array binding signal (z-score),[2],-0.159
same,glycan array binding signal (z-score),[3],0.798
same,glycan array binding signal (z-score),[4],0.255
same,glycan array binding signal (z-score),[5],-0.761
same,glycan array binding signal (z-score),[6],1.45
same,glycan array binding signal (z-score),[7],-0.145
same,glycan array binding signal (z-score),[8],0.07
same,glycan array binding signal (z-score),[9],0.443
same,glycan array binding signal (z-score),[10],0.64
same,glycan array binding signal (z-score),[11],-0.283
same,glycan array binding signal (z-score),[12],-0.419
same,glycan array binding signal (z-score),[13],0.569
same,glycan array binding signal (z-score),[14],0.967
same,glycan array binding signal (z-score),[15],-0.018
same,glycan array binding signal (z-score),[16],-1.44
same,glycan array binding signal (z-score),[17],-0.71
same,glycan array binding signal (z-score),[18],-0.776
same,glycan array binding signal (z-score),[19],-0.759
same,glycan array binding signal (z-score),[20],-1.04
same,glycan array binding signal (z-score),[21],0.213
same,glycan array binding signal (z-score),[22],0.201
same,glycan array binding signal (z-score),[23],-0.606
same,glycan array binding signal (z-score),[24],-0.225
same,glycan array binding signal (z-score),[25],0.129
same,glycan array binding signal (z-score),[26],0.578
same,glycan array binding signal (z-score),[27],0.015
same,glycan array binding signal (z-score),[28],0.265
same,glycan array binding signal (z-score),[29],2.24
same,glycan array binding signal (z-score),[30],0.575
same,glycan array binding signal (z-score),[31],-0.2
same,glycan array binding signal (z-score),[32],-0.251
same,glycan array binding signal (z-score),[33],-0.104
same,glycan array binding signal (z-score),[34],-0.655
same,glycan array binding signal (z-score),[35],-0.149
same,glycan array binding signal (z-score),[36],0.7
same,glycan array binding signal (z-score),[37],-0.136
same,glycan array binding signal (z-score),[38],-0.25

# Part of the list above in a different format:
binder | measurement | setting | value
SAG1 (Toxoplasma gondii), P13664 (protein) MSVSLHHFIISSGFLTSMFPKAVRRAVTAGVFAAPTLMSFLRCGVMASDPPLVANQVVTCPDKKSTAAVILTPTENHFTLKCPKTALTEPPTLAYSPNRQICPAGTTSSCTSKAVTLSSLIPEAEDSWWTGDSASLDTAGIKLTVPIEKFPVTTQTFVVGCIKGDDAQSCMVTVTVQARASSVVNNVARCSYGADSTLGPVKLSAEGPTTMTLVCGKDGVKVPQDNNQYCSGTTLTGCNEKSFKDILPKLTENPWQGNASSDKGATLTIKKEAFPAESKSVIIGCTGGSPEKHHCTVKLEFAGAAGSAKSAAGTASHVSIFAMVIGLIGSIAACVA | glycan array binding signal (z-score) | [20] | -1.04
same | glycan array binding signal (z-score) | [21] | 0.213
